From publication PMC5954019
Substitutions are numbered along the chain they refer to. These are yes or no findings as the source states them, for the method shown. In cells and extracts the contact can be indirect. Some entries that bind do so weakly or less than the wild type. For some of these results: Tags and fused reporters may be left off the sequences shown. Blank lines part the entries; values can stand above or below the molecule they belong to.

The chains behind the UniProt entries cited, without tags or fusion partners.
UniProt Q3UK78: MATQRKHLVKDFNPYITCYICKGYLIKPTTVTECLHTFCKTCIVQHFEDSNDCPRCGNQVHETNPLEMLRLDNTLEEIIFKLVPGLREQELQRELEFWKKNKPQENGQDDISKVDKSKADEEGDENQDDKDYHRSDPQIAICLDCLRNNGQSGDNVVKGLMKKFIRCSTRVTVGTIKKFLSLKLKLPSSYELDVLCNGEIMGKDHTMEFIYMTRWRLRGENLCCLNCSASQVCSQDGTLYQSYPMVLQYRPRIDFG
UniProt Q8VDS3: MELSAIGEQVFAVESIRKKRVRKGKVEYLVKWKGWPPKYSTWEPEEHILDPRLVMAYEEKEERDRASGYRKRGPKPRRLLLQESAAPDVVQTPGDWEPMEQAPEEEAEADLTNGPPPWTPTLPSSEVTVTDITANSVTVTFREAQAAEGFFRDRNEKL
UniProt O95931: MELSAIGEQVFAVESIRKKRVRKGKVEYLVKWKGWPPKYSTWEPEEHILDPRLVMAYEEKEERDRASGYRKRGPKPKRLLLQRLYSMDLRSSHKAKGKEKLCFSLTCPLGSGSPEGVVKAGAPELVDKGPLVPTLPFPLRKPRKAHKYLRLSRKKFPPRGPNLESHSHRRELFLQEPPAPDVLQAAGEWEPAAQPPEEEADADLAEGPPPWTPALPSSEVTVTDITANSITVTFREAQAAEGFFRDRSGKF

What was measured:
[1] = target: GST-RING1B ring finger domain (amino acids 49-95) (UniProt Q9CQJ4); test: pull-down; GST-RING1B fusion proteins on beads incubated with cell lysates of 293T cells overexpressing Flag-PCGF5; probed with anti-FLAG antibody by Western blot; only the target purified
[2] = target: T1, GST-RING1B C-terminal domain (amino acids 94-336) (UniProt Q9CQJ4); test: as above
T1 sequence: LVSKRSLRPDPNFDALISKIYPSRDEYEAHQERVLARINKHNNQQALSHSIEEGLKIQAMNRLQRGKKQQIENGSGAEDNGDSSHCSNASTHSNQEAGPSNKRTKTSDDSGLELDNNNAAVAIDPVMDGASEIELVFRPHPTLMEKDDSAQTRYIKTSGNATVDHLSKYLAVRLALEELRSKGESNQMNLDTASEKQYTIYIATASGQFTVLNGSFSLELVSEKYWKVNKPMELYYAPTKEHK

Flag-PCGF5 = Flag-PCGF5 (UniProt Q3UK78); test: co-IP; Flag co-IP from 293T cells transfected with Flag-PCGF5 or its deletion; Flag-tagged empty vector as control; Western blot
[3] = target: PCGF5 (endogenous, mESCs) (mouse (endogenous in mESCs)) (UniProt Q3UK78); test: co-sedimentation; whole cell extracts of mESCs on a 10-30% sucrose gradient, 247,605 x g, 4 °C, 16 h; fractions resolved on SDS-PAGE and immunoblotted

Molecule: RING1B (from UniProt Q99496 1-336)
binding (Flag-PCGF5): binds

Molecule: CBX7 (endogenous, mESCs) (from UniProt Q8VDS3 1-158)
binding [3]: no binding

Continued, values first:

binding [1]: binds
binding [2]: binds
Molecule: Flag-PCGF5 (from UniProt Q3UK78 1-256)

binding (Flag-PCGF5): no binding
Molecule: CBX7 (from UniProt O95931 1-251)

binding (Flag-PCGF5): binds
B1: RYBP (protein, UniProt Q8N488 1-228)
chain: MTMGDKKSPTRPKRQAKPAADEGFWDCSVCTFRNSAEAFKCSICDVRKGTSTRKPRINSQLVAQQVAQQYATPPPPKKEKKEKVEKQDKEKPEKDKEISPSVTKKNTNKKTKPKSDILKDPPSEANSIQSANATTKTSETNHTSRPRLKNVDRSTAQQLAVTVGNVTVIITDFKEKTRSSSTSSSTVTSSAGSEQQNQSSSGSESTDKGSSRSSTPKGDMSAVNDESF

binding [3]: binds
B2: RYBP (endogenous, mESCs) (protein, UniProt Q8CCI5 1-228)
chain: B1 chain with Q87P, E97D
